{"source": "PubChem BioAssay AID212", "about": "(DTP/NCI, 2004)", "test_system": "BDF1 mice, colon carcinoma 38 sc, T/C %", "assay": "NCI In Vivo Anticancer Drug Screen. Data for tumor model Colon Carcinoma 38 (subcutaneous) in B6D2F1 (BDF1) mice", "procedure,_shortened": "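Compound antitumor activity was assessed in mice carrying transplantable tumors. Survival or tumor size was recorded, and each value is the treated-group measurement divided by that of the vehicle-treated control group.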", "note": "The list is a part of this screen's results and no random one: it is rich in T/C values a quarter to a half above the control, in often repeated tests (any T/C) and in doses without a T/C. Further doses and runs are listed elsewhere. T/C gives the treated animals as a percentage of the vehicle group. Schedule codes are those of the source, taken here to give the interval after Q, in days (D) or hours (H), and the number of doses after X. Some T/C values carry the count of animals alive at the toxicity check (mostly the fifth day); without a count, all were alive then. Some doses were run more than once; their values stand side by side, smallest first. Brackets with × stand for listed records that agree. Some entries give survivors of the animals treated and no T/C: the source files T/C as zero there, which appears to mark a toxic dose or a test without result, not a measured value. Survivors were counted at the toxicity check, usually on the fifth day, unless a day is given; later deaths do not show. For survival time, this PubChem deposit counts one and a half times the control or more as active, and values a quarter to a half above the control carry no call in these data; other NCI protocols may use other cut-offs."}
{"smiles": "COc1cccc2c1C(=O)c1c(O)c3c(c(O)c1C2=O)C[C@@](O)(C(=O)CO)C[C@@H]3OC1CC(N)C(O)C(C)O1", "note": "(stereo partly specified)", "values": [{"measurement": "T/C", "setting": "T/C endpoint: median survival time, dose: 2.0 mg/kg/injection, schedule: Q07DX002 (iv), vehicle: saline, higher T/C = longer survival", "value": "126 % of control"}, {"measurement": "T/C", "setting": "T/C endpoint: median survival time, dose: 3.2 mg/kg/injection, schedule: Q07DX002 (iv), vehicle: saline, higher T/C = longer survival", "value": "134 % of control"}, {"measurement": "T/C", "setting": "T/C endpoint: median survival time, dose: 3.3 mg/kg/injection, schedule: Q07DX002 (sc), vehicle: saline, higher T/C = longer survival", "value": "142 % of control"}, {"measurement": "T/C", "setting": "T/C endpoint: median survival time, dose: 4.0 mg/kg/injection, schedule: Q07DX003 (iv), vehicle: saline, higher T/C = longer survival", "value": "125 % of control"}, {"measurement": "T/C", "setting": "T/C endpoint: median survival time, dose: 5.2 mg/kg/injection, schedule: Q07DX002 (sc), vehicle: saline, higher T/C = longer survival", "value": "145 % of control"}, {"measurement": "T/C", "setting": "T/C endpoint: median survival time, dose: 6.0 mg/kg/injection, schedule: Q07DX003 (sc), vehicle: saline, higher T/C = longer survival", "value": "143 % of control"}, {"measurement": "T/C", "setting": "T/C endpoint: median survival time, dose: 6.4 mg/kg/injection, schedule: Q07DX003 (iv), vehicle: saline, higher T/C = longer survival", "value": "127 % of control"}, {"measurement": "T/C", "setting": "T/C endpoint: median survival time, dose: 8.4 mg/kg/injection, schedule: Q07DX002 (iv), vehicle: saline, higher T/C = longer survival", "value": "147 % of control [9 of 10 alive on day 44]"}, {"measurement": "T/C", "setting": "T/C endpoint: median survival time, dose: 10.0 mg/kg/injection, schedule: Q07DX003 (iv), vehicle: saline, higher T/C = longer survival", "value": "148 % of control [9 of 10 alive on day 60]"}, {"measurement": "survivor count", "setting": "T/C endpoint: median survival time, dose: 13.5 mg/kg/injection, schedule: Q07DX002 (iv), vehicle: saline, higher T/C = longer survival", "value": "6 of 10 on day 44"}, {"measurement": "survivor count", "setting": "T/C endpoint: median survival time, dose: 13.5 mg/kg/injection, schedule: Q07DX003 (iv), vehicle: saline, higher T/C = longer survival", "value": "3 of 10 on day 60"}, {"measurement": "survivor count", "setting": "T/C endpoint: median survival time, dose: 13.6 mg/kg/injection, schedule: Q07DX002 (sc), vehicle: saline, higher T/C = longer survival", "value": "4 of 10 on day 44"}, {"measurement": "survivor count", "setting": "T/C endpoint: median survival time, dose: 14.0 mg/kg/injection, schedule: Q07DX002 (iv), vehicle: saline, higher T/C = longer survival", "value": "2 of 10 on day 92 and 5 of 10 on day 81"}, {"measurement": "survivor count", "setting": "T/C endpoint: median survival time, dose: 14.0 mg/kg/injection, schedule: Q07DX004 (iv), vehicle: saline, higher T/C = longer survival", "value": "2 of 10 on day 107"}, {"measurement": "survivor count", "setting": "T/C endpoint: median survival time, dose: 19.0 mg/kg/injection, schedule: Q07DX002 (sc), vehicle: saline, higher T/C = longer survival", "value": "5 of 10 on day 81"}, {"measurement": "survivor count", "setting": "T/C endpoint: median survival time, dose: 21.0 mg/kg/injection, schedule: Q07DX003 (sc), vehicle: saline, higher T/C = longer survival", "value": "1 of 10 on day 63"}, {"measurement": "survivor count", "setting": "T/C endpoint: median survival time, dose: 22.0 mg/kg/injection, schedule: Q07DX002 (sc), vehicle: saline, higher T/C = longer survival", "value": "0 of 10 on day 44"}, {"measurement": "survivor count", "setting": "T/C endpoint: median survival time, dose: 25.0 mg/kg/injection, schedule: Q07DX003 (iv), vehicle: saline, higher T/C = longer survival", "value": "0 of 10 on day 60"}, {"measurement": "T/C", "setting": "T/C endpoint: median tumor weight (est.), dose: 0.5 mg/kg/injection, schedule: Q07DX002 (ip), vehicle: saline, evaluated on day 20, higher T/C = larger tumour", "value": "71, 85, 89, 137, 157 % of control (2×)"}, {"measurement": "T/C", "setting": "T/C endpoint: median tumor weight (est.), dose: 1.0 mg/kg/injection, schedule: Q07DX002 (ip), vehicle: saline, evaluated on day 20, higher T/C = larger tumour", "value": "43 [8 of 9 alive on day 20], 53, 81, 100, 106 [9 of 10 alive on day 20], 108, 109, 117, 133, 152 % of control [9 of 10 alive on day 20]"}, {"measurement": "T/C", "setting": "T/C endpoint: median tumor weight (est.), dose: 1.0 mg/kg/injection, schedule: Q07DX002 (ip), vehicle: water, evaluated on day 20, higher T/C = larger tumour", "value": "55, 71, 100 (2×), 100 % of control [9 of 10 alive on day 20]"}, {"measurement": "T/C", "setting": "T/C endpoint: median tumor weight (est.), dose: 1.5 mg/kg/injection, schedule: Q07DX002 (ip), vehicle: saline, evaluated on day 20, higher T/C = larger tumour", "value": "125 % of control"}, {"measurement": "T/C", "setting": "T/C endpoint: median tumor weight (est.), dose: 2.0 mg/kg/injection, schedule: Q07DX002 (ip), vehicle: saline, evaluated on day 20, higher T/C = larger tumour", "value": "67 [9 of 10 alive on day 20], 70, 81, 85, 90, 93, 108, 109, 114, 126 % of control"}, {"measurement": "T/C", "setting": "T/C endpoint: median tumor weight (est.), dose: 2.0 mg/kg/injection, schedule: Q07DX002 (ip), vehicle: water, evaluated on day 20, higher T/C = larger tumour", "value": "60, 61, 73, 92 (2×), 111, 113 % of control"}, {"measurement": "T/C", "setting": "T/C endpoint: median tumor weight (est.), dose: 2.25 mg/kg/injection, schedule: Q07DX002 (ip), vehicle: water, evaluated on day 20, higher T/C = larger tumour", "value": "138 % of control"}, {"measurement": "T/C", "setting": "T/C endpoint: median tumor weight (est.), dose: 4.0 mg/kg/injection, schedule: Q07DX002 (ip), vehicle: saline, evaluated on day 20, higher T/C = larger tumour", "value": "55, 56, 64, 69, 84, 88, 92 (2×), 97, 101 % of control"}, {"measurement": "T/C", "setting": "T/C endpoint: median tumor weight (est.), dose: 4.0 mg/kg/injection, schedule: Q07DX002 (ip), vehicle: water, evaluated on day 20, higher T/C = larger tumour", "value": "18, 63 (2×), 71, 84, 98, 108 % of control"}, {"measurement": "T/C", "setting": "T/C endpoint: median tumor weight (est.), dose: 4.5 mg/kg/injection, schedule: Q07DX002 (ip), vehicle: water, evaluated on day 20, higher T/C = larger tumour", "value": "141 % of control"}, {"measurement": "T/C", "setting": "T/C endpoint: median tumor weight (est.), dose: 8.0 mg/kg/injection, schedule: Q07DX002 (ip), vehicle: saline, evaluated on day 20, higher T/C = larger tumour", "value": "14 [9 of 10 alive on day 20], 24, 27 [7 of 10 alive on day 20], 30, 79 [7 of 10 alive on day 20], 80, 105 % of control"}, {"measurement": "survivor count", "setting": "T/C endpoint: median tumor weight (est.), dose: 8.0 mg/kg/injection, schedule: Q07DX002 (ip), vehicle: saline, higher T/C = larger tumour", "value": "3 of 10 on day 20 and 6 of 10 on day 20"}, {"measurement": "T/C", "setting": "T/C endpoint: median tumor weight (est.), dose: 8.0 mg/kg/injection, schedule: Q07DX002 (ip), vehicle: water, evaluated on day 20, higher T/C = larger tumour", "value": "57, 62, 123 % of control"}, {"measurement": "survivor count", "setting": "T/C endpoint: median tumor weight (est.), dose: 8.0 mg/kg/injection, schedule: Q07DX002 (ip), vehicle: water, higher T/C = larger tumour", "value": "1 of 10 on day 20, 5 of 10 on day 20, 6 of 10 on day 20"}, {"measurement": "survivor count", "setting": "T/C endpoint: median tumor weight (est.), dose: 10.0 mg/kg/injection, schedule: Q07DX002 (ip), vehicle: saline, higher T/C = larger tumour", "value": "3 of 10 on day 20"}, {"measurement": "survivor count", "setting": "T/C endpoint: median tumor weight (est.), dose: 10.0 mg/kg/injection, schedule: Q07DX002 (ip), vehicle: water, higher T/C = larger tumour", "value": "2 of 10 on day 20"}, {"measurement": "survivor count", "setting": "T/C endpoint: median tumor weight (est.), dose: 12.0 mg/kg/injection, schedule: Q07DX002 (ip), vehicle: saline, higher T/C = larger tumour", "value": "3 of 10 on day 20"}, {"measurement": "survivor count", "setting": "T/C endpoint: median tumor weight (est.), dose: 12.0 mg/kg/injection, schedule: Q07DX002 (ip), vehicle: water, higher T/C = larger tumour", "value": "1 of 10 on day 20 and 5 of 10 on day 20"}, {"measurement": "survivor count", "setting": "T/C endpoint: median tumor weight (est.), dose: 16.0 mg/kg/injection, schedule: Q07DX002 (ip), vehicle: saline, higher T/C = larger tumour", "value": "0 of 10 on day 20, 2 of 10 on day 20, 5 of 10 on day 20"}, {"measurement": "T/C", "setting": "T/C endpoint: median tumor weight (est.), dose: 16.0 mg/kg/injection, schedule: Q07DX002 (ip), vehicle: water, evaluated on day 20, higher T/C = larger tumour", "value": "17 and 70 % of control"}, {"measurement": "survivor count", "setting": "T/C endpoint: median tumor weight (est.), dose: 16.0 mg/kg/injection, schedule: Q07DX002 (ip), vehicle: water, higher T/C = larger tumour", "value": "0 of 10 on day 20 and 2 of 10 on day 20"}, {"measurement": "survivor count", "setting": "T/C endpoint: median tumor weight (est.), dose: 18.0 mg/kg/injection, schedule: Q07DX002 (ip), vehicle: water, higher T/C = larger tumour", "value": "0 of 10 on day 20"}, {"measurement": "survivor count", "setting": "T/C endpoint: median tumor weight (est.), dose: 20.0 mg/kg/injection, schedule: Q07DX002 (ip), vehicle: saline, higher T/C = larger tumour", "value": "0 of 10 on day 20"}, {"measurement": "survivor count", "setting": "T/C endpoint: median tumor weight (est.), dose: 20.0 mg/kg/injection, schedule: Q07DX002 (ip), vehicle: water, higher T/C = larger tumour", "value": "0 of 10 on day 20 and 2 of 10 on day 20"}, {"measurement": "survivor count", "setting": "T/C endpoint: median tumor weight (est.), dose: 24.0 mg/kg/injection, schedule: Q07DX002 (ip), vehicle: saline, higher T/C = larger tumour", "value": "0 of 10 on day 20 and 5 of 10 on day 20"}, {"measurement": "survivor count", "setting": "T/C endpoint: median tumor weight (est.), dose: 24.0 mg/kg/injection, schedule: Q07DX002 (ip), vehicle: water, higher T/C = larger tumour", "value": "0 of 10 on day 20"}, {"measurement": "survivor count", "setting": "T/C endpoint: median tumor weight (est.), dose: 32.0 mg/kg/injection, schedule: Q07DX002 (ip), vehicle: water, higher T/C = larger tumour", "value": "0 of 10 on day 20"}, {"measurement": "survivor count", "setting": "T/C endpoint: median tumor weight (est.), dose: 48.0 mg/kg/injection, schedule: Q07DX002 (ip), vehicle: water, higher T/C = larger tumour", "value": "0 of 10 on day 20"}]}
